Laboratory results: the supplement of paper PMC5949888
± gives the standard deviation of the averaged measurements. Most values lie at the floor of the assay. Slopes are relative: functional sequences can read slightly below zero.

System: Saccharomyces cerevisiae PS128 hsf1 delta, HSF1(1-493) fusion
Test: growth estimate (transactivation domain function in HSF1 fusion, heat-shock survival) (a.u. (slope of normalised read count over time)); higher = stronger growth at 37°C, i.e. more transactivation activity
Details: library: random library

Row | Substance | growth estimate
1 | SAGRQLTLSTFAPN | < -0.25
2 | SAGTAHCTRPSRLSRDTSYD | < -0.25
3 | SAGTELQLASFPASSILYVL | < -0.25
4 | SAGTS | < -0.25
5 | SAHSSLRFQDLDNR | < -0.25
6 | SAICTLAWRW | < -0.25
7 | SAIYTHAITADTKGHPPRQR | < -0.25
8 | SAKASGEG | < -0.25
9 | SAKF | < -0.25
10 | SAKRVF | < -0.25
11 | SALA | < -0.25
12 | SALSRSAAYTSSLSC | < -0.25
13 | SAPRLGGTGNVFSNL | < -0.25
14 | SAQALLGSGVGTNH | < -0.25
15 | SAQRSPPLYMSPDT | < -0.25
16 | SARDTAAGWPGGSGDPGWIK | < -0.25
17 | SARGSNDGTRACRSRPRTAS | < -0.25
18 | SASLNFYETRQRWRM | < -0.25
19 | SATHFLEYVSRAFVANPQTV | < -0.25
20 | SATMVRLT | < -0.25
21 | SATWIALRTRVGLNSLGDLL | < -0.25
22 | SAVCGGLGDQPVAWG | < -0.25
23 | SAVQCIQATGNVRKTACHTP | -0.246
24 | SAVVSGKAGTSRMLCVSEEW | < -0.25
25 | SAWGLEGQRLSSKR | < -0.25

Row | Substance | growth estimate
26 | SAYRGE | < -0.25
27 | SAYW | < -0.25
28 | SCAPANFRGRRLSSWRLIAT | -0.25
29 | SCATRMERFTPERGSSNRPT | < -0.25
30 | SCAVSRT | < -0.25
31 | SCCLTTRGPGRVSPVAGSMY | < -0.25
32 | SCDGRTESPRFISGVP | < -0.25
33 | SCDLSELSLGHHVKRLTCWQ | < -0.25
34 | SCENLRCVFRFSAQLFVG | < -0.25
35 | SCFGRAPPGVYDSS | < -0.25
36 | SCGEDLGGGD | < -0.25
37 | SCGS | < -0.25
38 | SCGSKHA | < -0.25
39 | SCGVISRDRAPLFNGTL | < -0.25
40 | SCGVR | < -0.25
41 | SCHRGRPN | < -0.25
42 | SCIASEANRRWSYRRRE | < -0.25
43 | SCIRRASDNGERTDFGTCWT | < -0.25
44 | SCKACSTQIY | < -0.25
45 | SCLLPGLPEDLRSQVMGWLT | -0.25
46 | SCLQ | < -0.25
47 | SCLRGLEIIG | < -0.25
48 | SCLVFLLTFTCYVP | < -0.25
49 | SCNGGTHVGWSQYLKSRSYD | < -0.25
50 | SCNIGGRSREASNE | < -0.25

Row | Substance | growth estimate
51 | SCNSDGTKPRPLSSFKGLVA | < -0.25
52 | SCPNKCVGKRTLGKRFSAA | < -0.25
53 | SCQGSLWCGTGSLSY | < -0.25
54 | SCRAADRDPKCPATMSGFSA | < -0.25
55 | SCRHCWYAGFRSMN | < -0.25
56 | SCRPRLGIESHTLKTERRVP | < -0.25
57 | SCRRELGG | < -0.25
58 | SCRRMQRESGDSKLPHGCVP | < -0.25
59 | SCRSSIVVHWRCD | < -0.25
60 | SCSATQAKNGQIMRVGVYGE | < -0.25
61 | SCSIEAS | < -0.25
62 | SCSIRRG | < -0.25
63 | SCSQLD | < -0.253
64 | SCSTPPNYTERVYLVVSASS | < -0.25
65 | SCTACTETLACETILFENAG | -0.188
66 | SCTCLPRARV | < -0.25
67 | SCTEITLSRYLGNKQGSWSK | < -0.25
68 | SCTPRDPGTDGLFRFAAHGR | < -0.25
69 | SCTRRGHLRPLGWILTDLPV | < -0.25
70 | SCVGTQ | < -0.25
71 | SCVKPRLL | < -0.25
72 | SDDYLGVTGCLSSKPSATHS | < -0.25
73 | SDEGFTADCHGCSAPLMLPC | < -0.25
74 | SDERRVLAGKSRGLGTHSGS | < -0.25
75 | SDFCQYP | < -0.25

5 consecutive entries from above:
Row | Substance | growth estimate
68 | SCTPRDPGTDGLFRFAAHGR | < -0.25
69 | SCTRRGHLRPLGWILTDLPV | < -0.25
70 | SCVGTQ | < -0.25
71 | SCVKPRLL | < -0.25
72 | SDDYLGVTGCLSSKPSATHS | < -0.25

Next part

Row | Substance | growth estimate
76 | SDFLQRHVDRAGSLYACWVE | < -0.25
77 | SDFSKSA | < -0.25
78 | SDGACSNS | < -0.25
79 | SDGEVPHPNWVLATGS | < -0.25
80 | SDGIRAF | < -0.25
81 | SDGMLVPCGVAWIKKHSLRR | < -0.25
82 | SDGWDTTPAGS | < -0.25
83 | SDIIA | < -0.25
84 | SDINQHWENWHHELVCRSKA | < -0.25
85 | SDKPCSPRVRFHKVVKKSRY | < -0.25
86 | SDKPHGSLMDSISTMRVRGD | < -0.25
87 | SDLHN | -0.229
88 | SDLVDNEADVRSTGSQGVGN | < -0.25
89 | SDLYEIRRKTVDVVCAGHEA | < -0.25
90 | SDNRGHDGRTIS | < -0.25
91 | SDPFSVRSMQKRR | < -0.25
92 | SDPSPGRLSGKSPVKIPKKI | < -0.25
93 | SDPVVASPKARWLRHVTLKP | -0.243
94 | SDQACKALSLSRPRRPQRRP | < -0.25
95 | SDRDDGGLSQLKT | < -0.25
96 | SDRRA | < -0.25
97 | SDRYPYKEPVYSA | -0.233
98 | SDSSWGLYTSIPLPSSRARC | < -0.25
99 | SDTAALCRVWS | < -0.25
100 | SDTPPPVWSSVVCSIRFVVN | < -0.25

Row | Substance | growth estimate
101 | SDVRLGPVEYLAVAYRRRWF | < -0.25
102 | SDVTVYEVYVSCRSGTANQQ | < -0.25
103 | SEAGFPVCGTGYASV | < -0.25
104 | SEAGRYSLAKTISTIGGVGA | < -0.25
105 | SECAECPVNPDVSLLSRHQR | < -0.25
106 | SEDAPGLGAAVRDGHVLAEG | < -0.25
107 | SEDQAPSNISLVCGESRRTG | < -0.25
108 | SEDYGRMRSIYVIKAVRGSR | < -0.25
109 | SEE | -0.2486 ± 0.0024
110 | SEGFAIATRINEAAQTLVHV | < -0.25
111 | SEGGASRGLIVNSH | < -0.25
112 | SEGTLWWAMNQYALALRSHH | < -0.25
113 | SEHLTFPEGILGAPRASNYF | < -0.25
114 | SEIVGVLRVRTKVPCTINRR | < -0.25
115 | SEIVVGTNGR | < -0.25
116 | SEKFNSFGSQGPSLH | < -0.25
117 | SEKGWVLSSAQSNGGVSLHT | < -0.25
118 | SELEEVVVFGRFRG | < -0.25
119 | SEMRSDRGILWLRCLHQRNG | < -0.25
120 | SEQKLDVCYSLRLLRRRVRL | < -0.25
121 | SEQPDGLSQEGARRVSPLAW | < -0.25
122 | SEREVPTVFVARRASSLNQG | -0.229
123 | SERIS | < -0.25
124 | SERIY | < -0.25
125 | SERSRPQEA | < -0.25

Row | Substance | growth estimate
126 | SESVRASESRSSHTLYYQGY | < -0.25
127 | SETKLSWKPVVGRRAPITVG | < -0.25
128 | SEVNRASVTCPSPYVSRFLA | < -0.25
129 | SEVPILKNRTAISPAGYPPT | < -0.25
130 | SEVPWRQAEVRGR | < -0.25
131 | SEVRIRDCKQSSTLARSNPH | < -0.25
132 | SEVSIR | < -0.25
133 | SEWGNHRKVLRA | < -0.25
134 | SEWVKVSSALANYLGCQFYR | < -0.25
135 | SEWVLSFKVV | < -0.25
136 | SFATVLPCPVLLQKFFLSRR | < -0.25
137 | SFCVMDGCD | < -0.25
138 | SFEFTRNRANRPKLMVALKG | < -0.25
139 | SFEIDLGLWVVPCPGTDNAV | < -0.25
140 | SFFWGSQQSSSGHFLQAVDG | < -0.25
141 | SFGFVR | < -0.25
142 | SFGLHGIRGALKHG | < -0.25
143 | SFHPWCVNREGHL | < -0.25
144 | SFLGRHRNPWFSRGET | < -0.25
145 | SFLLVASSLRLTGIFLCPVP | < -0.25
146 | SFLVRL | < -0.25
147 | SFNRSMH | < -0.25
148 | SFPDYIG | -0.245
149 | SFPKFD | < -0.25
150 | SFPPPWVESGRIEGLRGCQG | < -0.25

Row | Substance | growth estimate
151 | SFQEPPRPVNYSN | < -0.25
152 | SFQVNLKRLDRVFPGY | < -0.25
153 | SFRDLPDNNRRDDLLVTLPS | < -0.25
154 | SFRLTHTAMARQPSGFFDHD | < -0.25
155 | SFRSKINPIALQLGNRKSTA | < -0.25
156 | SFSAALELPRLIAHR | < -0.25
157 | SFSLVFTRA | < -0.25
158 | SFSQRLWVLRIRLRHDHPDS | < -0.25
159 | SFSTIRDLRVHCG | < -0.25
160 | SFTGRE | < -0.25
161 | SFTREVSYNV | < -0.25
162 | SFVCLCLAY | < -0.25
163 | SFVRSSMPAAVQSPVWENVP | < -0.25
164 | SFVYREHCTSGTGIAGPRSS | < -0.25
165 | SFYATYLSIIEV | < -0.25
166 | SFYMLGFAYR | < -0.25
167 | SFYMSCRFIARLTVPGLPPT | < -0.25
168 | SFYSSCNF | < -0.25
169 | SGAARNSEATDHQGPPTDGL | < -0.25
170 | SGAKAEQTGHLQKVSKRHQV | < -0.25
171 | SGATEHLHLNMGIAWAMRIH | < -0.25
172 | SGCMTVAPEESASWYSSKSN | < -0.25
173 | SGCRIFYSMYHPEVPPLADS | < -0.25
174 | SGCSQCPNPGCYKTLGRICI | < -0.25
175 | SGDLRSNV | < -0.25

Row | Substance | growth estimate
176 | SGDMLPYVPVR | < -0.25
177 | SGDPEVSLITYMSTASMSRA | < -0.25
178 | SGDSIYATRSWRLPVPNACM | < -0.25
179 | SGDVGHRCRISSYTKRDDLL | < -0.25
180 | SGEDRLRPTR | < -0.25
181 | SGEEQKVGLM | -0.245
182 | SGF | < -0.25
183 | SGFDPPAYLLEDIQLDDLAR | < -0.25
184 | SGFGEEQPLTAEFEPPGYKV | < -0.25
185 | SGGAGRRVMYQKATSDIRVR | < -0.25
186 | SGGAVP | < -0.25
187 | SGGCRRCL | < -0.25
188 | SGGIDRGAPKTSLQARS | < -0.25
189 | SGGPFSFQSMTRTGLRRRRS | < -0.25
190 | SGGS | < -0.25
191 | SGGSL | < -0.25
192 | SGGSVLEVEKRRQAITV | < -0.25
193 | SGGSYSNGRGMGVSEEPNGP | < -0.253
194 | SGGVNV | < -0.25
195 | SGGVRRQDILDK | < -0.25
196 | SGHKKKG | < -0.25
197 | SGHRGR | < -0.25
198 | SGHTMGQWVWMRFYPE | < -0.25
199 | SGHYYARFYTLCGGTPRRQW | < -0.25

In a second layout: entries from further up
SGDMLPYVPVR
  growth estimate: < -0.25
SGDPEVSLITYMSTASMSRA
  growth estimate: < -0.25
